Reference: US9498483B2, “2,3,5-trisubstituted thiophene compounds and uses thereof” (priority 2010, dated 2016)
Some of these results come from one statement about several compounds together.

Tested on: HCV replicon I389luc-ubi-neo/NS3-3′/ET in ET (Huh-lucubineo-ET) cells
Test: Replicon assay (Biological Example 2), luciferase readout
Format: cell-based
Details: between 100 nM and 5.0 uM
Method: A cell line, ET (Huh-lucubineo-ET) was used for screening of compounds for inhibiting HCV RNA dependent RNA polymerase. The ET cell line was stably transfected with RNA transcripts harboring a I389luc-ubi-neo/NS3-3′/ET; replicon with firefly luciferase-ubiquitin-neomycin phosphotransferase fusion protein and EMCV-IRES driven NS3-5B polyprotein containing the cell culture adaptive mutations (E1202G; T12801; K1846T) (Krieger at al, 2001 and unpublished). The ET cells were grown in DMEM (Dulbeco's Modified Eagle's Medium), supplemented with 10% fetal calf serum, 2 mM Glutamine, Penicillin (100 IU/mL)/Streptomycin (100 μg/mL), 1× nonessential amino acids, and 250 μg/mL G418 (“Geneticin”). Reagents were all available through Life Technologies (Bethesda, Md.). The cells were plated at 0.5-1.0×10^4 cells/well in the 96 well plates and incubated for 24 hrs before adding test compound. The compounds were added to the cells to achieve a final concentration of 0.1 nM to 50 μM and a final DMSO (dimethylsulfoxide) concentration of 0.5%. Luciferase activity was measured 48 hours later by adding a lysis buffer and the substrate (Catalog number Glo-lysis buffer E2661 and Bright-Glo luciferase system E2620 Promega, Madison, Wis.). […] EC50 values were calculated by fitting % inhibition at each concentration to the following equation: % inhibition=100%/[(EC50/[I])^b+1] where b was Hill's coefficient. […]

## 3-[(2S,5R)-5-Cyclohexyl-2-(2,3-dihydroxy-propyl)-2-methyl-3-oxo-morpholin-4-yl]-5-(3,3-dimethyl-but-1-ynyl)-thiophene-2-carboxylic acid [Compound 326]
  IC50: 100 to 5000 nM
